Assay results: article PMC12040169 (PLOS Biology, 2025)
The other results are listed elsewhere or left out.

Each compound was assayed on T1, CTL2-GFP (C. trachomatis L2/434/Bu, GFP-expressing). Conditions: bulk GFP, single well; 28.5 h, 10 µM; inhibitor.
T1 construct: L2/434/Bu, GFP-expressing
Parameters: species or system HeLa; Intracellular C. trachomatis growth in HeLa cells, bulk GFP fluorescence relative to DMSO

Structure (SMILES) | % of control remaining [%]
O=C1CC(N2CCC(c3nc4ccccc4s3)CC2)C(=O)N1Cc1ccccc1 (stereo not shown) [CBK267438] | 141.182
O=C(NCc1ccccc1OC1CCNC1)c1ccccc1 (stereo not shown) [CBK028301T] | 135.089
Cc1cccc(-c2ncc(NC(=O)Cc3cccc(Oc4ccccc4)c3)nc2-c2ccc(N)cc2)c1 [CBK037583] | 110.937
CNC(=O)c1ccc(NS(=O)(=O)c2ccc(OC(F)(F)F)cc2)cc1 [CBK043495] | 123.079
CSCCC(C(=O)O)N1C(=O)c2ccc(C(=O)O)cc2C1=O (stereo not shown) [CBK265135] | 131.946
COc1cc2c(cc1OC)C1c3ccccc3NC(=O)N1CC2 (stereo not shown) [CBK284471] | 150.193
N#Cc1c2ccccc2cn1Cc1cccc(Cl)c1 [CBK019531] | 130.166
CC1(C)CC(=O)c2cc(C(N)=O)c(=O)n(-c3ccc(Cl)cc3)c2C1 [CBK293936] | 141.326
Cc1ccc(Nc2nc3c(c(=O)[nH]2)CCCC3)cc1 [CBK287895] | 84.6224
O=C(O)CCC(=O)Nc1ccc(Oc2ccccc2)cc1 [CBK286957] | 145.231
CC(C)CCNC(=O)N1CCN(c2ccccc2)CC1 [CBK155203] | 118.025
COc1cc(C(O)c2cc3c(cc2CO)OCO3)cc(OC)c1OC (stereo not shown) [CBK200098] | 123.424
COC(=O)CSc1nnc(COc2ccc3c(c2)OCO3)n1-c1ccccc1 [CBK266139] | 117.171
COc1cc(Nc2cncc(-c3cccs3)n2)cc(OC)c1OC [CBK065663] | 107.665
COc1ccccc1-c1cc(Nc2cccc(N(C)C)c2)ncn1 [CBK091011] | 136.026
CN(C)c1ccc(-c2nnc([C@H]3CCN(C(=O)CCC(=O)O)C3)o2)cc1 [CBK289408] | 106.177
COc1ccc2[nH]cc(CC(=O)N3CCCC4(CCN(Cc5ccccc5)C4)C3)c2c1 (stereo not shown) [CBK136883] | 118.425
CN(C)CCN(C)c1nc(-c2ccc(F)c(Cl)c2)cn2ccnc12 [CBK038007] | 94.899
CCOC(=O)c1ccc(NC(=O)C(C)Sc2nc3ccccc3[nH]2)cc1 (stereo not shown) [CBK267330] | 154.781
O=C(O)c1cc(S(=O)(=O)Nc2ccccc2C(=O)O)ccc1Br [CBK262371] | 126.226
CCN1CCCN(c2ccnc(OCCN3CCOCC3)n2)CC1 [CBK083807] | 81.5905
CCC(CC)Cn1c(-c2cccnc2)nc2cc(S(=O)(=O)NCCO)ccc21 [CBK003450] | 139.352

A second format for some results above.
Structure (SMILES)	% of control remaining [%]
O=C(NCc1ccccc1OC1CCNC1)c1ccccc1 (stereo not shown) [CBK028301T]	135.089
Cc1cccc(-c2ncc(NC(=O)Cc3cccc(Oc4ccccc4)c3)nc2-c2ccc(N)cc2)c1 [CBK037583]	110.937
